Measurements published in paper PMC3666947.
No constants are given. Whether binding was seen depends on the method and setting. Binding seen in cells or lysates may run through a third protein. Some entries that bind do so weakly or less than the wild type.

The chains behind the UniProt entries cited, without tags or fusion partners.
UniProt G5E870: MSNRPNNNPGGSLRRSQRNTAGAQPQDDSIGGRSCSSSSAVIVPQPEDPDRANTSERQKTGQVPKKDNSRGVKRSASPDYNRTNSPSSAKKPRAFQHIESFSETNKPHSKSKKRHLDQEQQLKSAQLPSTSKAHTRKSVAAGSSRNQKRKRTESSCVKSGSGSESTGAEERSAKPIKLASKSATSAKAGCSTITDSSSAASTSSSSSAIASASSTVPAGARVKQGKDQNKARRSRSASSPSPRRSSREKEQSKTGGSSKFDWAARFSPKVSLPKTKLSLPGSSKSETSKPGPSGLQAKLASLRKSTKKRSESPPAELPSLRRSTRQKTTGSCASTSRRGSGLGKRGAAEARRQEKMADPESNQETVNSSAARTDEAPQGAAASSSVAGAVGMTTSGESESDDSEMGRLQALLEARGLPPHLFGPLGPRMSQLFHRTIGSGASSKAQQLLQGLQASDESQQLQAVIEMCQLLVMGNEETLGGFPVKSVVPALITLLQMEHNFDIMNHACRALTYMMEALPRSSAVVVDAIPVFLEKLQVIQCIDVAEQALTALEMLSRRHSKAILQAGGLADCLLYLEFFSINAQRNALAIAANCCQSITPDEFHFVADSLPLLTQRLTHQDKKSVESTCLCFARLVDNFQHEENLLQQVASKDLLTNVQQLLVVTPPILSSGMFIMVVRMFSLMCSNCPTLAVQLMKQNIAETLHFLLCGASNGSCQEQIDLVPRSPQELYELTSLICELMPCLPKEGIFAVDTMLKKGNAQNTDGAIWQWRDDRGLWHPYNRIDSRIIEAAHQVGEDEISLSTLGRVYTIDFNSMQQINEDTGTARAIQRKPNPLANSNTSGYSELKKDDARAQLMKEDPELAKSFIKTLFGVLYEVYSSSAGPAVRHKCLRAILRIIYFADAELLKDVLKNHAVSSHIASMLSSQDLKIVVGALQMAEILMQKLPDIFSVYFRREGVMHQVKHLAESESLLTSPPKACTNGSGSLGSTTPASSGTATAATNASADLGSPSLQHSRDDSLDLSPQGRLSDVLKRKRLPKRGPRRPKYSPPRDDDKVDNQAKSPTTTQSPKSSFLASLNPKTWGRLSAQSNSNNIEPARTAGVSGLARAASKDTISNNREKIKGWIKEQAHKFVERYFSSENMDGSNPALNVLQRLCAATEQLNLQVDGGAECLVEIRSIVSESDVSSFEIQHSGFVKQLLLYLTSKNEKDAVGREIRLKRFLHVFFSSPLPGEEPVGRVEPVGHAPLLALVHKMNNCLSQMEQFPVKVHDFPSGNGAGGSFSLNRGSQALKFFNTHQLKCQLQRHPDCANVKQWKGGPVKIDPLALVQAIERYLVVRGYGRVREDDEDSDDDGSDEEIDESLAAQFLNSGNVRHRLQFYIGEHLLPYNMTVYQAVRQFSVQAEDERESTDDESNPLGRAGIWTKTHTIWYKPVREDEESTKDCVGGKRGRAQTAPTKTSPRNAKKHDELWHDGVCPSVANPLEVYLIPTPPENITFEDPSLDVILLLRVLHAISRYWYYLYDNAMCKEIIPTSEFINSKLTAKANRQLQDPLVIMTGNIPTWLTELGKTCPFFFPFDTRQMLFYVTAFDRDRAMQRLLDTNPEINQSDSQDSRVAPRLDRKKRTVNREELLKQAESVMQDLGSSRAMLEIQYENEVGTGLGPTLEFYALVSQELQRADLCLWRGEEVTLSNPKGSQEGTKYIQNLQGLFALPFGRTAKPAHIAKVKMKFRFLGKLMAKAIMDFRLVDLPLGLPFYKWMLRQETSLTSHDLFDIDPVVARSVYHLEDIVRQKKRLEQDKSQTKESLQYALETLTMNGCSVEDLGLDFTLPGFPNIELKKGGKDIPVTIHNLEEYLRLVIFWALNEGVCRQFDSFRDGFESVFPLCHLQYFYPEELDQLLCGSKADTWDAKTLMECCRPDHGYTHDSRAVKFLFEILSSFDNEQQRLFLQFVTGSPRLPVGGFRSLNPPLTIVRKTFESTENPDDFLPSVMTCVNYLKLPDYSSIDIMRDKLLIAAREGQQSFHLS
UniProt P40645: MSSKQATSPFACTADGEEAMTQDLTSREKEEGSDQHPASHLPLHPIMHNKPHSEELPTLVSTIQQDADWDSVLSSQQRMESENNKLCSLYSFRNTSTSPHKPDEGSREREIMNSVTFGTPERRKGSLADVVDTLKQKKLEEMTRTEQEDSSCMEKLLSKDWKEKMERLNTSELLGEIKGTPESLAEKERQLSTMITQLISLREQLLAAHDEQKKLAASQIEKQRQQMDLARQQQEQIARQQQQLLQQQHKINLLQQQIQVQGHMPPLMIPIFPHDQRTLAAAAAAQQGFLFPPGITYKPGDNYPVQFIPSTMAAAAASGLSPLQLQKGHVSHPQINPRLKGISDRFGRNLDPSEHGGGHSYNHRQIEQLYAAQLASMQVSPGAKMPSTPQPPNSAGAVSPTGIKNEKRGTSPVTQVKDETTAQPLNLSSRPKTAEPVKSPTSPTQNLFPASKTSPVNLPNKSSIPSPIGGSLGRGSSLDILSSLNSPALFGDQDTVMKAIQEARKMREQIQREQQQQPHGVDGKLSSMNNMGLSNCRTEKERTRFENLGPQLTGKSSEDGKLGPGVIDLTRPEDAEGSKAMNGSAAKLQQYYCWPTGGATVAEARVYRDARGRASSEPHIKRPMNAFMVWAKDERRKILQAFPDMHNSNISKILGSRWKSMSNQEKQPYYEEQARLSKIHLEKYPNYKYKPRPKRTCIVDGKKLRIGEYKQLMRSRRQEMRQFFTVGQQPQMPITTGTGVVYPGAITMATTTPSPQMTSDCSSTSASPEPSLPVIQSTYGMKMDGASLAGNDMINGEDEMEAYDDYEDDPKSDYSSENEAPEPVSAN

Molecular target: endogenous mouse Trip12 (mouse (endogenous in C2C12)) (UniProt G5E870)
Assay: co-IP; endogenous proteins, nuclear fractions of C2C12 cells differentiated 48 h in DM; NaCl adjusted to ~150 mM; IP with rabbit anti-TRIP12 or anti-Sox6 (Rabbit TrueBlot Set), anti-GST as negative control; Western blot

endogenous mouse Sox6 (from UniProt P40645 1-827)
binding: binds
